## Primary screen of a compound library

Amino acid sequences for entries named in this document (tags omitted). Residues count along the entry.
UniProt P9WPC5, whole entry: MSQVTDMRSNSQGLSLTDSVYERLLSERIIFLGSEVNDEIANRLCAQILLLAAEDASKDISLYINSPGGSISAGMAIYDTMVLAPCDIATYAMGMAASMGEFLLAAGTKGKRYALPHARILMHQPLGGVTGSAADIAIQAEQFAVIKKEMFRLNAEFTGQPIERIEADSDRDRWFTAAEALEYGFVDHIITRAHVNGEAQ
UniProt P9WPC3, whole entry partner: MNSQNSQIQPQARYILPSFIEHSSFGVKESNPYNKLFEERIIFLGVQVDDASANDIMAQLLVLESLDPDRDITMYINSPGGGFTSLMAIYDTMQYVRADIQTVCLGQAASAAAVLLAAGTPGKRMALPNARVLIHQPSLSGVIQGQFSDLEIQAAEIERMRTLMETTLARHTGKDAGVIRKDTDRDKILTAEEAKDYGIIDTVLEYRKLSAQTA
UniProt I6X8D2, whole entry: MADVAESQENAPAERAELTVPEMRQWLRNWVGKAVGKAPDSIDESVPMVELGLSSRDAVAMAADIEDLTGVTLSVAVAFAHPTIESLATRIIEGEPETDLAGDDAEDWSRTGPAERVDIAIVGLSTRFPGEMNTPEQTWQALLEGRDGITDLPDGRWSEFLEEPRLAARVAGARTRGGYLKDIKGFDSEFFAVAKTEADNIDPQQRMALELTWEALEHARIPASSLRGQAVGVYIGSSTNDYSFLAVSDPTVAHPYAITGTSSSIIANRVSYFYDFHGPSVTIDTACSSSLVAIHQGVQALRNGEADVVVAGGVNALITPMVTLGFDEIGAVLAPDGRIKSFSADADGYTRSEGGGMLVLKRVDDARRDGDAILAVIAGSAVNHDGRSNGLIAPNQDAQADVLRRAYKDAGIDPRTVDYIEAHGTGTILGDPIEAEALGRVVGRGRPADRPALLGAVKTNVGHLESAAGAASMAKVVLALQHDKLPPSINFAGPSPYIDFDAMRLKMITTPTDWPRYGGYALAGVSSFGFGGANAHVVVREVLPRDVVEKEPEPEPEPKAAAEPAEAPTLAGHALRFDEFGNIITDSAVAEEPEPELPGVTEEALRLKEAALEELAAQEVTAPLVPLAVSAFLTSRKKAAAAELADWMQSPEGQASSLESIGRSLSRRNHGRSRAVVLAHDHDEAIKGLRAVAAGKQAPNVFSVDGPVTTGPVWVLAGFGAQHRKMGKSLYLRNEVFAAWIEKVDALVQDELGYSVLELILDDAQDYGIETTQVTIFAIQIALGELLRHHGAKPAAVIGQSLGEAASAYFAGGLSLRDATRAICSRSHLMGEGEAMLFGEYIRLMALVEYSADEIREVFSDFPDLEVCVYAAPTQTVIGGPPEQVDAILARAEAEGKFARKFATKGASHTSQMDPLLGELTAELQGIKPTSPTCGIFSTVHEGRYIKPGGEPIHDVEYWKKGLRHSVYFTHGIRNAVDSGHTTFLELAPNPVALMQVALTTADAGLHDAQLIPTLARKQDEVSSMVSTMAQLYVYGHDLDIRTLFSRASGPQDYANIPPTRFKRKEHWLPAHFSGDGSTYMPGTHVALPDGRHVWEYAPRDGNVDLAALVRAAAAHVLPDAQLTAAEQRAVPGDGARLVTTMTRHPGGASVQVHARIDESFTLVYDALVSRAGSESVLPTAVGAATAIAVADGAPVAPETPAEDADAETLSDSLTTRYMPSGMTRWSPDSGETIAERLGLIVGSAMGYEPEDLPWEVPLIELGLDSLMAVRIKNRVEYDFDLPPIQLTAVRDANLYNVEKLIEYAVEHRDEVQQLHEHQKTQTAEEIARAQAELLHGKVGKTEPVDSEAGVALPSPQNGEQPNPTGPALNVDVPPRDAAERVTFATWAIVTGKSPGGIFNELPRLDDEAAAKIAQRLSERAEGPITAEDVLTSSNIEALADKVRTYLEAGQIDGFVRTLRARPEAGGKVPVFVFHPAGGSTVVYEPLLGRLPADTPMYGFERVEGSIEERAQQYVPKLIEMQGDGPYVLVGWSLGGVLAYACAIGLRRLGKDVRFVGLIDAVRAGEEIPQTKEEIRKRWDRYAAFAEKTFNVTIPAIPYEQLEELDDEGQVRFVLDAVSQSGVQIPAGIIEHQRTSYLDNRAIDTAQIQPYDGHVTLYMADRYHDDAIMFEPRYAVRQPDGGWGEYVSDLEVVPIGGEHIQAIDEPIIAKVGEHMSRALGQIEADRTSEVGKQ
UniProt Q8IDJ8, 1-583: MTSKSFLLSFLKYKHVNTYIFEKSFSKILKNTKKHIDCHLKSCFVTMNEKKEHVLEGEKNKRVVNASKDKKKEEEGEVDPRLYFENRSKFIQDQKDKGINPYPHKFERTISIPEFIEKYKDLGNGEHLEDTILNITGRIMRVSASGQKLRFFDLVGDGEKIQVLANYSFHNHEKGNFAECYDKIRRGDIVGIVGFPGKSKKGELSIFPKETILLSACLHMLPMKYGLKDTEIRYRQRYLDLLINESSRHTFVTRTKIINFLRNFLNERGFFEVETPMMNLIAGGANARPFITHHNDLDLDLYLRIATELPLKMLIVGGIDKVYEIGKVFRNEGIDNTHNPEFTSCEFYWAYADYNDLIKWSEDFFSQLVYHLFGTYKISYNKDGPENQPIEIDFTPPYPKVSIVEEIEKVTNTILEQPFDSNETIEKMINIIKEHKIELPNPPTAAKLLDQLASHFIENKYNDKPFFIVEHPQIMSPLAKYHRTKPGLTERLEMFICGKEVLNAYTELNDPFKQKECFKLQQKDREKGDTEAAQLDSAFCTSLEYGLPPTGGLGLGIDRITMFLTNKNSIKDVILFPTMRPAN

Measurements from “University of Dundee, Small-Polar-MMV Screening Library” (2021), ChEMBL document CHEMBL3988442.

The filed quantity is “Percent Effect” (%). How 0% and 100% were set is not recorded. Most values in the screen are low, and negative values occur. This is an unselected part of the compounds tested. Two or more numbers in one place are separate tests of the same structure; such repeats can differ widely.

ClpP1P2: 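ClpP1P2, Mycobacterium tuberculosis (UniProt P9WPC5 and UniProt P9WPC3). Protease assay of ClpP1P2, read by the AMC dye that it sets free. Tested at 50 µM. Direction is inferred from only a few compounds that gave an IC50; most scored high, so higher reads as stronger inhibition. Most other retested compounds had strongly negative values. About 69,000 compounds were tested under these conditions; 0.015% (about 10) showed 50% or more at least once.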
Leishmania in macrophages: 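Cell assay of Leishmania donovani living inside macrophages; the read-out is not stated. Compounds at 30 µM. The record gives no direction; compounds that gave an IC50 in retests scored well above the rest, so higher reads as stronger inhibition. Of about 69,000 compounds tested this way, about 1,000 (1.5%) reached 50% or more in at least one test.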
Pks13 thioesterase: 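Polyketide synthase Pks13, Mycobacterium tuberculosis (UniProt I6X8D2). Enzyme assay of the thioesterase domain of polyketide synthase 13; the read-out is not stated. Compounds at 30 µM. The record gives no direction; the compounds picked for IC50 retests had high values, so higher reads as stronger inhibition. About 67,000 compounds were tested under these conditions; 0.46% (about 300) showed 50% or more at least once.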
PfKRS1: 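Lysine-tRNA ligase, Plasmodium falciparum 3D7 (UniProt Q8IDJ8). Enzyme assay of the cytosolic lysyl-tRNA synthetase in 384-well plates, read by luminescence. Compounds at 30 µM. Higher reads as stronger inhibition, judged from the few compounds that gave an IC50. About 69,000 compounds were tested under these conditions; 0.071% (about 49) showed 50% or more at least once.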
Toxoplasma: 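Assay of Toxoplasma gondii numbers, read through their beta-galactosidase reporter with a colour substrate. Concentration: 10 µM. Higher reads as fewer parasites (inferred from which compounds were picked for retests). About 67,000 compounds were tested under these conditions; 0.38% (about 260) showed 50% or more at least once.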

structure: Cc1ccc(F)c(C(=O)NC2CCC(N3C(=O)CCC3=O)CC2)c1 (stereo not shown)
ClpP1P2: -2.884%
Leishmania in macrophages: 21.02%
Pks13 thioesterase: -25.26%
PfKRS1: -0.3165%
Toxoplasma: 7.044%

structure: COc1ccc(C2(NC(=O)CCn3cncn3)CCCCC2)cc1
ClpP1P2: -3.361%
Leishmania in macrophages: 3.029%
Pks13 thioesterase: -36.02%
PfKRS1: 4.593%
Toxoplasma: 2.114%

structure: CNc1ncc(CN(C)C(=O)c2cccc(CC3CCNCC3)c2)cn1
ClpP1P2: 14.17%
Leishmania in macrophages: -41.75%
Pks13 thioesterase: 0.7044%
PfKRS1: -5.155%
Toxoplasma: 10.44%

structure: O=C(NC(CC(F)(F)F)c1ccc(Cl)cc1)c1nc(=O)[nH][nH]1 (stereo not shown)
ClpP1P2: 9.025%
Leishmania in macrophages: -6.551%
Pks13 thioesterase: -32.96%
PfKRS1: 2.782%
Toxoplasma: 8.954%

structure: COc1cc(NCc2cccnc2)c(-c2nn[nH]n2)cc1OC
ClpP1P2: -23.25%
Leishmania in macrophages: 0.0497%
Pks13 thioesterase: 2.148%
PfKRS1: 4.82%
Toxoplasma: -11.44%

structure: CN(Cc1cc(-c2ccncc2)no1)C(=O)[C@@H]1CSCN1C
ClpP1P2: -7.397%
Leishmania in macrophages: 19.92%
Pks13 thioesterase: -45.07%
PfKRS1: -0.7206%
Toxoplasma: 0.9132%

structure: Cc1cccc(C(=O)N2CCN(S(C)(=O)=O)[C@@H](C)C2)c1Cl
ClpP1P2: -15.88%
Leishmania in macrophages: -12.47%
Pks13 thioesterase: -11.56%
PfKRS1: -2.4%
Toxoplasma: 3.077%

structure: COCC1CN(Cc2ccc(F)cc2)Cc2nn(C)cc21 (stereo not shown)
ClpP1P2: -0.0631%
Pks13 thioesterase: -9.622%
PfKRS1: 3.671%

structure: O=C(NCC1CCOC1)N1CCN(Cc2ccc3c(c2)CCO3)CC1 (stereo not shown)
ClpP1P2: 6.639%
Leishmania in macrophages: 26.84%
Pks13 thioesterase: -7.712%
PfKRS1: 0.6942%
Toxoplasma: 3.829%

structure: Cc1cccc(-n2cc(CN3CCN(C)[C@@H]4CS(=O)(=O)C[C@@H]43)cn2)c1
ClpP1P2: -0.495%
Pks13 thioesterase: -19.53%
PfKRS1: 3.529%

structure: Cc1noc(C)c1CN1C[C@@H]2CCCO[C@@H]2[C@H](Nc2ccccn2)C1
ClpP1P2: 12.98%
Pks13 thioesterase: -22.74%
PfKRS1: 1.875%

structure: O=C1CCCCCN1Cc1nc(C2(c3ccc(F)cc3)CCOC2)no1 (stereo not shown)
ClpP1P2: -3.061%
Leishmania in macrophages: 12.79%
Pks13 thioesterase: -13.4%
PfKRS1: -4.425%
Toxoplasma: 23.76%

structure: CCn1cc(CNc2ccc(N(C)CCOC)cn2)cn1
ClpP1P2: -5.294%
Leishmania in macrophages: 12%
Pks13 thioesterase: 5.202%
PfKRS1: 7.17%
Toxoplasma: 10.87%

structure: Cn1cc(C(NCCc2ccccn2)c2cccc(F)c2)cn1 (stereo not shown)
ClpP1P2: -7.737%
Leishmania in macrophages: -6.377%
Pks13 thioesterase: 4.14%
PfKRS1: -0.2179%
Toxoplasma: -4.356%

structure: Cc1ccc2c(n1)N(Cc1csc(C)n1)CCN(C1CCOC1)C2.O=C(O)C(F)(F)F.O=C(O)C(F)(F)F (stereo not shown)
Leishmania in macrophages: 8.507% & -3.71%
Toxoplasma: -15.46%

structure: O=C(c1cccc(CO)n1)N1CCCC1c1nc2cc(F)ccc2[nH]1 (stereo not shown)
ClpP1P2: -5.594%
Leishmania in macrophages: -14.83%
Pks13 thioesterase: 7.686%
PfKRS1: -1.044%
Toxoplasma: -13.64%

structure: CN(C)C(=O)N1CC2(CCOCC2)c2cc(NC(=O)CCO)ccc21
ClpP1P2: -3.324%
Leishmania in macrophages: 34.79%
Pks13 thioesterase: -33.43%
PfKRS1: 5.879%
Toxoplasma: -4.096%

structure: Cn1cc(CN2CC[C@H]3O[C@H](C(=O)NC4CC4)CC[C@H]32)c2ccccc21
ClpP1P2: 3.117%
Pks13 thioesterase: -35.35%
PfKRS1: 1.597%

structure: O=C(NCC(O)c1ccc(F)c(F)c1)c1ccccc1F (stereo not shown)
ClpP1P2: -6.155%
Leishmania in macrophages: 15.16%
Pks13 thioesterase: 8.192%
PfKRS1: 6.413%
Toxoplasma: 12.39%

structure: COCC(=O)N[C@H](C)c1onc(-c2ccc(Cl)cc2)c1C(=O)O
ClpP1P2: 1.176%
Leishmania in macrophages: 14.93%
Pks13 thioesterase: -18.3%
PfKRS1: 2.547%
Toxoplasma: -4.617%

structure: CCc1nnc2n1CCN(Cc1ncc(-c3ccc(Cl)cc3)o1)C2
ClpP1P2: -12.72%
Leishmania in macrophages: 16.61%
Pks13 thioesterase: -3.79%
PfKRS1: -0.2436%
Toxoplasma: 15.05%

structure: O=C(O)C(F)(F)F.O=C(O)C(F)(F)F.c1cnc(N2CCC3(CC2)CC(NCC2CC2)c2ccccc23)nc1 (stereo not shown)
Leishmania in macrophages: -0.5849% & -22.14%
Toxoplasma: 8.819%

structure: CN(Cc1nc(COc2ccccc2)no1)CC1Cc2ccccc2O1 (stereo not shown)
ClpP1P2: -8.897%
Leishmania in macrophages: 2.053%
Pks13 thioesterase: 13.65%
PfKRS1: -0.5547%
Toxoplasma: -1.955%

structure: CCCC(C)(C)NC(=O)c1cnc(CC)s1
ClpP1P2: 8.843%
Leishmania in macrophages: 14.34%
Pks13 thioesterase: -23.08%
PfKRS1: 9.08%
Toxoplasma: -0.3157%

structure: Cc1noc(C)c1CN1CCCC2(CCN(C(=O)NC3CC3)C2)C1.O=C(O)C(F)(F)F (stereo not shown)
Leishmania in macrophages: 17.52%
Toxoplasma: 4.118%

structure: CCN1CC[C@@]2(C(=O)N3CCCC3)CCN(S(C)(=O)=O)CC[C@@H]12
ClpP1P2: 1.174%
Pks13 thioesterase: -31.32%
PfKRS1: 5.025%

structure: FC(F)(F)c1n[nH]c2c1CN(CCc1ccccn1)CC2
ClpP1P2: 3.362%
Leishmania in macrophages: -12.51%
Pks13 thioesterase: -8.743%
PfKRS1: 1.887%
Toxoplasma: -9.004%

structure: COCCCNc1c(-c2ccc(Cl)cc2)c(=O)c1=O
ClpP1P2: 5.019%
Leishmania in macrophages: 30.33%
Pks13 thioesterase: 6.231%
PfKRS1: 1.132%
Toxoplasma: -4.492%

Some entries from above, unchanged:

- O=C(NCC(O)c1ccc(F)c(F)c1)c1ccccc1F (stereo not shown) : ClpP1P2: -6.155%; Leishmania in macrophages: 15.16%; Pks13 thioesterase: 8.192%; PfKRS1: 6.413%; Toxoplasma: 12.39%
- CCCC(C)(C)NC(=O)c1cnc(CC)s1 : ClpP1P2: 8.843%; Leishmania in macrophages: 14.34%; Pks13 thioesterase: -23.08%; PfKRS1: 9.08%; Toxoplasma: -0.3157%
- COc1cc(NCc2cccnc2)c(-c2nn[nH]n2)cc1OC : ClpP1P2: -23.25%; Leishmania in macrophages: 0.0497%; Pks13 thioesterase: 2.148%; PfKRS1: 4.82%; Toxoplasma: -11.44%
- Cc1cccc(C(=O)N2CCN(S(C)(=O)=O)[C@@H](C)C2)c1Cl : ClpP1P2: -15.88%; Leishmania in macrophages: -12.47%; Pks13 thioesterase: -11.56%; PfKRS1: -2.4%; Toxoplasma: 3.077%